Laboratory results reported in patent US8912144B2, “Method for treating stroke via administration of NEP1-40 and inosine” (Children's Medical Center Corporation, priority 2003, dated 2014).
Further values from the same series stand in other lists.

Tested on: corticospinal neurons (CSNs/CSMNs)
Assay: Laser-capture microdissection and Illumina microarray gene expression in corticospinal neurons contralateral to stroke
Assay type: in vivo, rat
Method: In a separate group of animals (n=20), layer V pyramidal cells of the sensorimotor cortex were retrogradely labeled by injecting Alexa-Fluor-488-conjugated cholera toxin B subunit (CTB; 300 U/μl in sterile saline) into the cervical spinal cord. For this, animals were anesthetized with a combination of ketamine and Domitor (medetomidine) and a laminectomy was performed at the cervical level of the spinal cord (C2-C4). CTB was stereotaxically delivered into four sites lateral to the corticospinal tract. Injections (1.3 μl) were spaced 1 mm apart on the rostro-caudal axis, and were made 0.5 mm to the left and right of the midline. After allowing two weeks for transport of the tracer, we performed either sham surgery with no treatment (n=6) or stroke surgery combined with saline (n=3) or inosine (n=4) treatment as described above. Seven days later, animals were decapitated under transient gas anesthesia, brains were removed and rinsed in cold RPMI medium, and a tissue block containing the sensorimotor cortex was dissected and placed in OCT Tissue Tek Medium (Sakura Finetek USA Inc., CA) on dry ice within five minutes of death. Ten μm sections were cut onto precleaned Gold Seal RITE-ON glass slides (Gold Seal Prod-ucts, Portsmouth, N.H.), placed on dry ice, and rapidly stored at −80° C.
Slide-mounted sections were thawed and dehydrated in RNAse-free ethanol gradients and xylene. Retro-gradely labeled, fluorescent cortical pyramidal cells in the undamaged hemisphere were individually captured using the Arcturus VERITAS system. ≧500 cells were collected from each animal and stored in Arcturus extraction buffer at −80° C. Total RNA was extracted from cells using the Micro-to-Midi TotalRNA Purification System (Invitrogen, Carlsbad Calif.) and double-amplified using the TargetAmp 2-Round Aminoallyl-aRNA Amplification kit 1.0 (Epicentre, Madison, Wis.). Amplified RNA was checked for average fragment length using the Agilent RNA 6000 Nano LabChip kit (Agilent Technologies, Santa Clara, Calif.) and then biotinylated and hybridized (1 μg) on Illumina RatRef-12 Expression BeadChip arrays (Illumina, San Diego Calif.), querying the expression of >22,000 RefSeq-curated rat transcripts. Results were obtained from a total of 15 samples representing 6 untreated controls, 4 animals with stroke treated with saline and 5 animals with stroke treated with inosine. Slides were processed and scanned with Illumina BeadStation platform according to the manufacturer protocol.
Raw data was analyzed using Bioconductor packages (www.bioconductor.org, (Gentleman et al., 2004)). Low level quality-control analysis was performed using inter-array Pearson correlation and clustering based on variance. Two arrays (1 saline and 1 inosine-treated) were outliers and were excluded from the analysis. Data was normalized using quantile normalization, and analysis of differential expression was performed using a linear model fitting (LIMMA package, (Smyth, 2005). Differentially expressed genes were classified according to gene ontology using Bioconductor packages and online tools (DAVID, http://david.abcc.ncifcrf.gov/). Pathway analysis was carried out using Ingenuity Pathway Analysis (Ingenuity Systems, www.ingenuity.com).

OC[C@H]1O[C@@H](n2cnc3c(O)ncnc32)[C@H](O)[C@@H]1O [inosine]
Signal Intensity Inosine (LOC498726 ILMN_51854): 465 | Fold-Induction Stroke, ino vs. cntrl (LOC499015 ILMN_53627): 1.79 | Signal Intensity Inosine (LOC499015 ILMN_53627): 849 | Fold-Induction Stroke, ino vs. cntrl (LOC500721 ILMN_54363): 0.57 | Signal Intensity Inosine (LOC500721 ILMN_54363): 263 | Fold-Induction Stroke, ino vs. cntrl (LOC500795 ILMN_57850): 1.66 | Signal Intensity Inosine (LOC500795 ILMN_57850): 1141 | Fold-Induction Stroke, ino vs. cntrl (LOC501102 ILMN_48881): 1.98 | Signal Intensity Inosine (LOC501102 ILMN_48881): 669 | Fold-Induction Stroke, ino vs. cntrl (LOC501140 ILMN_52213): 0.25 | Signal Intensity Inosine (LOC501140 ILMN_52213): 106 | Fold-Induction Stroke, ino vs. cntrl (Lamb2 ILMN_55192): 1.88 | Signal Intensity Inosine (Lamb2 ILMN_55192): 2612 | Fold-Induction Stroke, ino vs. cntrl (Laptm5 ILMN_49562): 2.42 | Signal Intensity Inosine (Laptm5 ILMN_49562): 2101 | Fold-Induction Stroke, ino vs. cntrl (Ler3 ILMN_56245): 1.92 | Signal Intensity Inosine (Ler3 ILMN_56245): 1007 | Fold-Induction Stroke, ino vs. cntrl (Lr8 ILMN_66840): 1.90 | Signal Intensity Inosine (Lr8 ILMN_66840): 2275 | Fold-Induction Stroke, ino vs. cntrl (Lrrk1 ILMN_49754): 1.98 | Signal Intensity Inosine (Lrrk1 ILMN_49754): 903 | Fold-Induction Stroke, ino vs. cntrl (Lsm8 ILMN_63816): 0.44 | Signal Intensity Inosine (Lsm8 ILMN_63816): 343 | Fold-Induction Stroke, ino vs. cntrl (Lyl1 ILMN_51710): 2.44 | Signal Intensity Inosine (Lyl1 ILMN_51710): 604 | Fold-Induction Stroke, ino vs. cntrl (MGC72598 ILMN_66296): 1.92 | Signal Intensity Inosine (MGC72598 ILMN_66296): 1183 | Fold-Induction Stroke, ino vs. cntrl (MGC105797 ILMN_67564): 1.76 | Signal Intensity Inosine (MGC105797 ILMN_67564): 760 | Fold-Induction Stroke, ino vs. cntrl (Ms4a6b ILMN_67686): 2.44 | Signal Intensity Inosine (Ms4a6b ILMN_67686): 588 | Fold-Induction Stroke, ino vs. cntrl (Mus81 ILMN_56191): 2.00 | Signal Intensity Inosine (Mus81 ILMN_56191): 817 | Fold-Induction Stroke, ino vs. cntrl (Nell1 ILMN_52256): 0.49 | Signal Intensity Inosine (Nell1 ILMN_52256): 2125 | Fold-Induction Stroke, ino vs. cntrl (Npc2 ILMN_59161): 1.82 | Signal Intensity Inosine (Npc2 ILMN_59161): 7067 | Fold-Induction Stroke, ino vs. cntrl (Ntrk2 ILMN_62536): 0.56 | Signal Intensity Inosine (Ntrk2 ILMN_62536): 1376 | Fold-Induction Stroke, ino vs. cntrl (Nup35 ILMN_56075): 0.40 | Signal Intensity Inosine (Nup35 ILMN_56075): 357 | Fold-Induction Stroke, ino vs. cntrl (Pdlim7 ILMN_52167): 2.42 | Signal Intensity Inosine (Pdlim7 ILMN_52167): 957 | Fold-Induction Stroke, ino vs. cntrl (Phyhd1 ILMN_52522): 2.19 | Signal Intensity Inosine (Phyhd1 ILMN_52522): 1098 | Fold-Induction Stroke, ino vs. cntrl (Rab9 ILMN_47975): 0.49 | Signal Intensity Inosine (Rab9 ILMN_47975): 278 | Fold-Induction Stroke, ino vs. cntrl (Rhoc ILMN_61063): 2.23 | Signal Intensity Inosine (Rhoc ILMN_61063): 2204 | Fold-Induction Stroke, ino vs. cntrl (Rnf7 ILMN_65606): 0.52 | Signal Intensity Inosine (Rnf7 ILMN_65606): 460 | Fold-Induction Stroke, ino vs. cntrl (Rnf138 ILMN_52424): 0.53 | Signal Intensity Inosine (Rnf138 ILMN_52424): 636 | Fold-Induction Stroke, ino vs. cntrl (Rraga ILMN_48422): 0.37 | Signal Intensity Inosine (Rraga ILMN_48422): 693 | Fold-Induction Stroke, ino vs. cntrl (Slc13a3 ILMN_56539): 2.29 | Signal Intensity Inosine (Slc13a3 ILMN_56539): 888 | Fold-Induction Stroke, ino vs. cntrl (Slc15a3 ILMN_61391): 2.51 | Signal Intensity Inosine (Slc15a3 ILMN_61391): 842 | Fold-Induction Stroke, ino vs. cntrl (Sparc ILMN_55504): 2.50 | Signal Intensity Inosine (Sparc ILMN_55504): 2041 | Fold-Induction Stroke, ino vs. cntrl (Stch ILMN_54952): 0.33 | Signal Intensity Inosine (Stch ILMN_54952): 304 | Fold-Induction Stroke, ino vs. cntrl (Sugt1 ILMN_59830): 0.43 | Signal Intensity Inosine (Sugt1 ILMN_59830): 424 | Fold-Induction Stroke, ino vs. cntrl (Svil ILMN_61732): 2.18 | Signal Intensity Inosine (Svil ILMN_61732): 879 | Fold-Induction Stroke, ino vs. cntrl (Tead3 ILMN_62982): 2.28 | Signal Intensity Inosine (Tead3 ILMN_62982): 721 | Fold-Induction Stroke, ino vs. cntrl (Tsn ILMN_50850): 0.43 | Signal Intensity Inosine (Tsn ILMN_50850): 220 | Fold-Induction Stroke, ino vs. cntrl (Ucp2 ILMN_69305): 2.02 | Signal Intensity Inosine (Ucp2 ILMN_69305): 1632 | Fold-Induction Stroke, ino vs. cntrl (Vim ILMN_54242): 1.66 | Signal Intensity Inosine (Vim ILMN_54242): 1352 | Fold-Induction Stroke, ino vs. cntrl (Znf148 ILMN_53875): 0.47 | Signal Intensity Inosine (Znf148 ILMN_53875): 1149 | Fold-Induction Stroke, ino vs. cntrl (gene P2rxl1 (ILMN_68585), CSMNs contralateral to SMA infarct, stroke + inosine vs control): 0.76 | Fold-Induction Stroke, ino vs. cntrl (gene Tm7sf2 (ILMN_58100), CSMNs contralateral to SMA infarct, stroke + inosine vs control): 0.65
